Test [1] has as its target T1, FLAG-tagged human DNA2 from 293T cells (human) (UniProt P51530).
T1 sequence: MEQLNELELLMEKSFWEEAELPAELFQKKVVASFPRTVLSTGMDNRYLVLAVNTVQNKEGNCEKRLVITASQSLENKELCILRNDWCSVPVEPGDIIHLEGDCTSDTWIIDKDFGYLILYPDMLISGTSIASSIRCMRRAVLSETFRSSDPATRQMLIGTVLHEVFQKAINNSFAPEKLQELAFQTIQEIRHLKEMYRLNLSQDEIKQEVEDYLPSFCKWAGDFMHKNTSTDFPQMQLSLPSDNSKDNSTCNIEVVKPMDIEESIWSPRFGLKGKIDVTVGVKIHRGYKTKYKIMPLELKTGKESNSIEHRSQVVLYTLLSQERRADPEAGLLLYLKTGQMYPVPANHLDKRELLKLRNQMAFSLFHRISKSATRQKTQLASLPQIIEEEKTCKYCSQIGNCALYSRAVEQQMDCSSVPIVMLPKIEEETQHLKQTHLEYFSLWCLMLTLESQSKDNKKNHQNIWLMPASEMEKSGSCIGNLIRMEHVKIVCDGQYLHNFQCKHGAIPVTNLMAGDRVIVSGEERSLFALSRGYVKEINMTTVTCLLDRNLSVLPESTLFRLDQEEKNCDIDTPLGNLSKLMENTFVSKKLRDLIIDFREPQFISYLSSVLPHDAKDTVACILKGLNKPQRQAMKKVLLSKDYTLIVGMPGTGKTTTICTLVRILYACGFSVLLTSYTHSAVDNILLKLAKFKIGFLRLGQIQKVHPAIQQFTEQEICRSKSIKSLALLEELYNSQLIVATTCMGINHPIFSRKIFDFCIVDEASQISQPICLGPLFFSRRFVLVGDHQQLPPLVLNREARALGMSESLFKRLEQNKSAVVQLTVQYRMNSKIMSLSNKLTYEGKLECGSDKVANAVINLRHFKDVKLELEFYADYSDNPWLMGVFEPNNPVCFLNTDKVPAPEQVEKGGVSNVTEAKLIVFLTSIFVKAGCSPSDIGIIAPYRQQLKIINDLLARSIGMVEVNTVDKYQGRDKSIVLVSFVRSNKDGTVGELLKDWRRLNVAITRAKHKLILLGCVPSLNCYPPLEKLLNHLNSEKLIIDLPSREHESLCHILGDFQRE
Put plainly: co-IP; FANCD2 fragments co-immunoprecipitated with DNA2 (Figure 2G); format not told.

Amino acid sequences for entries named in this document (tags omitted). A change or cut given only in a name is not applied to a line headed by its entry.
UniProt Q06609: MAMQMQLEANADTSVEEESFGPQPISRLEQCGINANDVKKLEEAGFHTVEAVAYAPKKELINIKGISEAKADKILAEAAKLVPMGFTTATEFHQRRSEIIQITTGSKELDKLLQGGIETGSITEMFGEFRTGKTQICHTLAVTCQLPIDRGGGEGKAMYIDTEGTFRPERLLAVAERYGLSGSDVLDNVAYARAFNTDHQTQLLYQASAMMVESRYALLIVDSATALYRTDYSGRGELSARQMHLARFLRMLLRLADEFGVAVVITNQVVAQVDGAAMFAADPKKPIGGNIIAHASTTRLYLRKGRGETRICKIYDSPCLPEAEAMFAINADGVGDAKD
UniProt Q9BXW9: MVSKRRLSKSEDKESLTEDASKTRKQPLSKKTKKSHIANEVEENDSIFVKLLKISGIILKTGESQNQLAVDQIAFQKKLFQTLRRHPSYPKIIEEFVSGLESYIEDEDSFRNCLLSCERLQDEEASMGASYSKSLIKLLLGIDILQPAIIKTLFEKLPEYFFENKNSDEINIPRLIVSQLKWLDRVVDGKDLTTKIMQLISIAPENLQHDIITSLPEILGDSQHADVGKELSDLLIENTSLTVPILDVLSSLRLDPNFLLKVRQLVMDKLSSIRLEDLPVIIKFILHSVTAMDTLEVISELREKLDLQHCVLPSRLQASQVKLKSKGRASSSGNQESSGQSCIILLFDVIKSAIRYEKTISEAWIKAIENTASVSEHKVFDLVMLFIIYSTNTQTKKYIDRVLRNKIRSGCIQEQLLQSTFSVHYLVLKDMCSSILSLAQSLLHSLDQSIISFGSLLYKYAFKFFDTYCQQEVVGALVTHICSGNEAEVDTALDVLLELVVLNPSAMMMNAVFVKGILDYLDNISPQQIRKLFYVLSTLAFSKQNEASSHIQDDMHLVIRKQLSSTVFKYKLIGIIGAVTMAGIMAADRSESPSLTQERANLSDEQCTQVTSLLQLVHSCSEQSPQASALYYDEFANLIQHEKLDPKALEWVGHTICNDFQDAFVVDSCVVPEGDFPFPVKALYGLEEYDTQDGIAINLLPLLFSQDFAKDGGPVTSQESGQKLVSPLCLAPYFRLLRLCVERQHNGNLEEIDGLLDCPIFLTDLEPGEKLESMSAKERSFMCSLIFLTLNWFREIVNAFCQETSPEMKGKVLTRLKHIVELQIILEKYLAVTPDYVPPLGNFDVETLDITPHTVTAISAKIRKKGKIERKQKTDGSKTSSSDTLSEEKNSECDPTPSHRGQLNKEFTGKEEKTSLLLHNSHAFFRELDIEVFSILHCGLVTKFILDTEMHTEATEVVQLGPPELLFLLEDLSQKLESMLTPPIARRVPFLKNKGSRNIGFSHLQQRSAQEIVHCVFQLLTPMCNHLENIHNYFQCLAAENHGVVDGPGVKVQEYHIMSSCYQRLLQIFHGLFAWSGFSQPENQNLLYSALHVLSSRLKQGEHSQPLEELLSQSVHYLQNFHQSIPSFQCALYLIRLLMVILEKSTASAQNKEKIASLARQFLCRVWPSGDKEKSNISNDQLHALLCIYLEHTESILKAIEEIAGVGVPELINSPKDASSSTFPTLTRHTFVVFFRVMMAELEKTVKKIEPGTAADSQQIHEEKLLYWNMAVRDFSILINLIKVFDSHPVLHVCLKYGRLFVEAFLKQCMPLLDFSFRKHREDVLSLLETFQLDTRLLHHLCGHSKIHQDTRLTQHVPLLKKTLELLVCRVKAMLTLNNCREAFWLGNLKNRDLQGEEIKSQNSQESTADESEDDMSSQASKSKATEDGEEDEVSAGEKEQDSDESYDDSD

The target of test [2] is T2, FLAG-tagged DNA2 transfected into A549 cells (human) (UniProt P51530).
T2 sequence: T1 sequence
Put plainly: co-IP; FLAG-DNA2 or empty vector transfected into A549; 2 mM HU for 3 h; lysate pulled down with FLAG M2 beads; western blot.

The target of test [3] is RAD51 in cell extracts (human (endogenous in A549 and U2OS)) (UniProt Q06609). Put plainly: co-IP; U2OS nuclear extract treated with Benzonase; RAD51 antibody or IgG control overnight at 4 C, Protein A agarose beads; western blot. On the technique in general: A western blot detects proteins with antibodies after separation by electrophoresis.
Test [4] deals with T3, FLAG-DNA2 over-expressed in U2OS cells (human) (UniProt P51530).
T3 sequence: T1 sequence
Put plainly: co-IP; FLAG-DNA2 over expressed in U2OS; nuclear extract treated with Benzonase; pulled down with M2 beads, eluted with FLAG peptide; immunoblot.

The target in test [5] is RAD51 immunoprecipitated with anti-RAD51 (Supplementary Figure S3A) (UniProt Q06609). The experiment in a line: co-IP; HU-treated cells; lysate in buffer H150 (50 mM HEPES-KOH pH 7.4, 150 mM NaCl, 0.1% NP40, 10% glycerol); anti-RAD51 (ab133534) and Protein A/G magnetic beads overnight at 4 C; western blot (Supplementary Figure S3A).
Another test deals with FLAG-FANCD2 (human) (UniProt Q9BXW9). Put plainly: co-IP; HEK-293T lysates with over-expressed FLAG-DNA2 proteins supplemented with 2 nM FLAG-FANCD2; pulled down with FANCD2 antibody on magnetic beads; western blot with 3xFLAG antibody; only the target purified.

Results are given in words; binding and its absence hold for the method and conditions named. Binding seen in cells or lysates may run through a third protein. Some entries that bind do so weakly or less than the wild type. For part of these data: Sequences can lack the tags named with a protein.

Regarding “FANCD2 fragment F1, a.a. 1-588 (from UniProt Q9BXW9 1-588) (domain or fragment)”, the binding entry in test [1] is on record as “binds”.
Same read-out and setting: the entry for “FANCD2 fragment F4, a.a. 1178-1451 (from UniProt Q9BXW9 1178-1451) (domain or fragment)” is “binds”.
As to “RAD51 in cell extracts (from UniProt Q06609 1-339)”, the binding result in test [2] is “binds”.
Consider “endogenous FANCD2 (from UniProt Q9BXW9 1-1451)”, for which the binding entry in test [2], in test [3], in test [4] and in test [5] was “binds” throughout.

B1: endogenous DNA2 (enzyme, UniProt P51530 1-1060)
chain: T1 sequence
B1: in test [5], the binding entry was “binds”.

B2: FLAG-tagged human DNA2 from 293T cells (enzyme, UniProt P51530 1-1060, looked up)
chain: T1 sequence
notes: human DNA2 helicase/nuclease; also called FLAG-DNA2; hDNA2; source: 293T, over-expressed, purified (M2 FLAG beads, 3x FLAG peptide elution); HEK-293T, over-expressed, in lysate
Consider B2, for which the binding entry in the test with FLAG-FANCD2 (human) is reported as “binds”.

These data come from paper PMC10516637, “FANCD2 and RAD51 recombinase directly inhibit DNA2 nuclease at stalled replication forks and FANCD2 acts as a novel RAD51 mediator in strand exchange to promote genome stability” (Nucleic Acids Research, 2023).
